PubChem BioAssay AID602196 – INSERM | 2012
Screen: 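Knock-downs that protect lung cancer cells from cisplatin or sensitise them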. Cells: human A549 lung cancer cells. Reagent: siRNA pair against human genes. Time to read-out: 48 h transfection before cisplatin; time from cisplatin to read-out not stated. Conditions: cisplatin at a dose killing half of control-siRNA cells; exact dose and duration not given. Measured: 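Shift in cisplatin death relative to control siRNA, from -50 (all cells die) to +50 (no cells die); siRNAs harmful on their own scored 0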. Scale: two-siRNA summed score (-2 to +2): higher = both siRNAs protect from cisplatin killing; -2 means both sensitise. Hit rule: 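Each siRNA scores 0 if harmful alone by LDH or WST-1, otherwise +1 if it reduces and -1 if it increases cisplatin killing; a gene is active when both siRNAs agree (sum +2 or -2)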. Calls: active = both siRNAs shift cisplatin killing the same way; inactive = no consistent shift, or siRNA harmful alone.
Here is a random part of about 23,000 reagents. 455 of all reagents (2%) were called active. 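Active includes both protection and sensitisation; some change values fall well beyond the stated -50 to +50 range.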 Entries without a mark were called inactive. Not all columns of the deposit are shown. The record does not give: the amount of reagent.

For OR2B3, the values are two-siRNA summed score (-2 to +2) = 0.
Depletion of PDIK1L gave: two-siRNA summed score (-2 to +2) = 0.
Silencing of UGGT2 gave: two-siRNA summed score (-2 to +2) = -1.
After knock-down of SPAG17 the results were two-siRNA summed score (-2 to +2) = 0.
ALS2CL scored two-siRNA summed score (-2 to +2) = 0.

Reformatted: entries from further up.
target | two-siRNA summed score (-2 to +2)
SPAG17 | 0
ALS2CL | 0

The list goes on:
Depletion of ZNRF4 came out at: two-siRNA summed score (-2 to +2) = 0.
Silencing of LYLDT1 resulted in: two-siRNA summed score (-2 to +2) = 0.
DRICH1 gave two-siRNA summed score (-2 to +2) = 0.
Against AUH, the values are two-siRNA summed score (-2 to +2) = 0.
Knock-down of LENG1 came out at: two-siRNA summed score (-2 to +2) = 0.
For ALS2 the deposit lists two-siRNA summed score (-2 to +2) = 0.
Silencing of YME1L1 resulted in: two-siRNA summed score (-2 to +2) = 0.
